Some results were stated once for a whole list of compounds, not compound by compound.
Key:
[1] = Probe-tag specificity, peptides, electrophoretic-mobility-shift assay: Cy5-(SO3)2-(PAEDT)2; assay type: binding; settings: normalized to probe-GPG complex at 5 mM DTT
[2] = Probe-tag specificity, peptides, electrophoretic-mobility-shift assay: Cy3-(SO3)2-(PAEDT)2; assay type: binding; settings: 5 mM DTT; normalized to probe-GPG complex at 5 mM DTT

Sequence | Cy5-(SO3)2-(PAEDT)2 labeling of tetracysteine-tagged peptide (normalized intensity) ([1]; 50 mM DTT) | Cy5-(SO3)2-(PAEDT)2 labeling of tetracysteine-tagged peptide (normalized intensity) ([1]; 5 mM DTT) | Cy3-(SO3)2-(PAEDT)2 labeling of tetracysteine-tagged peptide (normalized intensity) [2]
CGCGCGC (N-acetyl; C-terminal amide; target sequence) [Ac—WNCGCGCGCN—CONH2, tag CGCGCGC; tested as the set A peptide that holds it] | moderately strong labeling (normalized intensity≧10%, <50%) |  | 
CGPCGCGPC (N-acetyl; C-terminal amide; target sequence) [Ac—WNCGPCGCGPCN—CONH2] |  | moderately strong labeling (normalized intensity≧20%, <60%) | 
CPGCGCPGC [Ac—WNCPGCGCPGCN—CONH2] |  | moderately strong labeling (normalized intensity≧20%, <60%) | strong labeling (normalized intensity≧60%)
CPGCGGCPGC [Ac—WNCPGCGGCPGCN—CONH2] |  |  | moderately strong labeling (normalized intensity≧20%, <60%)
